Measured values reported in publication PMC12520681.
These are yes or no findings as the source states them, for the method shown. In cells and extracts the contact can be indirect. A yes stands for co-enrichment or nearness to the bait. Other partners may have been found.

Chains of the proteins cited; added tags and fusions are not shown.
UniProt Q9P258: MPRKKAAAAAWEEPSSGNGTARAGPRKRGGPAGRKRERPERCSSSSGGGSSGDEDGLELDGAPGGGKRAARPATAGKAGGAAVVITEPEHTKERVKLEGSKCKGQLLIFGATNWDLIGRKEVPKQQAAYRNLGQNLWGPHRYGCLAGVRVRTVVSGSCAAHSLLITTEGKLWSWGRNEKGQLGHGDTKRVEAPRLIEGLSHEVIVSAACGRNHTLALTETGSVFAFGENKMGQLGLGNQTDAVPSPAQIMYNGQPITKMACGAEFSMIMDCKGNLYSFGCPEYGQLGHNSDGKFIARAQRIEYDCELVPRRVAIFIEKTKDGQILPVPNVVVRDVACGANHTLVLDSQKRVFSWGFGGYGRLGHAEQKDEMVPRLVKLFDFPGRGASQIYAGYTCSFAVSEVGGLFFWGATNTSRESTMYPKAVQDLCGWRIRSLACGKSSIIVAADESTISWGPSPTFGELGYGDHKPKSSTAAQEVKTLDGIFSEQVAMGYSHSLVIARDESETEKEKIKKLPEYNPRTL
UniProt P08670: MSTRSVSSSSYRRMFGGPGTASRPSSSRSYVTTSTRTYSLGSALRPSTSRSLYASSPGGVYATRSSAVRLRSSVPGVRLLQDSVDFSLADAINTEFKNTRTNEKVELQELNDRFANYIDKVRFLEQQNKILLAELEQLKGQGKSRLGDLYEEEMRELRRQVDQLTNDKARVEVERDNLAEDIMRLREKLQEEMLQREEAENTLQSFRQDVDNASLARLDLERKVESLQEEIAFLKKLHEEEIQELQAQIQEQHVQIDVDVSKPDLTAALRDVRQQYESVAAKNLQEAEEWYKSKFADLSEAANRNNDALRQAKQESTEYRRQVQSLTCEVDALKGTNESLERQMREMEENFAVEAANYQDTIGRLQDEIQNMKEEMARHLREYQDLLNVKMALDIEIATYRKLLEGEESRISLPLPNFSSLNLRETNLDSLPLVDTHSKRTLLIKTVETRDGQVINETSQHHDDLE

Biological target: Flag-RCC2 (UniProt Q9P258)
Assay: affinity purification with mass spectrometry; Flag-RCC2 construct or empty vector overexpressed in HEK293T cells; gel bands digested with trypsin, LC-MS/MS (Q Exactive)

Vimentin (from UniProt P08670 1-466)
binding: binds
